Test system: TgOAT
Details: read-out: Km of ornithine against TgOAT; Michaelis-Menten fit, 100 μg/mL TgOAT

Km: 31 ± 4 mM
Compound: NCCC[C@H](N)C(=O)O [ornithine, L-ornithine]

Source: patent US11207283B2, “Inactivators of toxoplasma gondii ornithine aminotransferase for treating toxoplasmosis and malaria” (priority 2016, dated 2021)
